From patent publication US11608341B2, “Substituted tetrahydropyrazolo[3,4-d]pyrimidines and tetrahydropyrazolo[4,3-d]pyrimidines as C5A receptor modulators” (Idorsia Pharmaceuticals Ltd., priority 2018, dated 2023)

The chains behind the UniProt entries cited, without tags or fusion partners.
UniProt P21730, whole entry: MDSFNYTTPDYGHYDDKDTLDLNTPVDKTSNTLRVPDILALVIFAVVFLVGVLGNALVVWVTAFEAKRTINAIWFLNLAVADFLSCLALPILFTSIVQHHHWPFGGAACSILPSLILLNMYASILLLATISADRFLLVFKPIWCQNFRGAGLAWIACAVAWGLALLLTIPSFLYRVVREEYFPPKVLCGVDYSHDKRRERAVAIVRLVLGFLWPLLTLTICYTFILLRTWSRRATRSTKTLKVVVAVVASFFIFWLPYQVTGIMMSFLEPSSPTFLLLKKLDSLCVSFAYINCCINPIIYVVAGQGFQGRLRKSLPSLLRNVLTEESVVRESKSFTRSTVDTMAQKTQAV

Target: C5AR1 (Homo sapiens, UniProt P21730)
Assay: In vitro assay: antagonism of C5a-induced beta-arrestin recruitment (PathHunter) in CHO-K1 C5AR1 beta-arrestin cell line
Conditions: read-out: C5aR IC50, antagonistic activity, 1-10 nM C5a agonist, geometric mean where several measurements

- IC50: 0.014 µM
SMILES: Cc1cccc(F)c1N1CCC(N2Cc3cn(C)nc3N(Cc3ccccc3C(F)(F)F)C2=O)CC1

The structures given here were assigned with low confidence; some may be wrong.
